# Laboratory results reported in PubChem BioAssay AID1347076 (National Center for Advancing Translational Sciences (NCATS), 2019).
# Hit rate of the full screen: of about 400,000 compounds, about 13,000 (3.2%) were called active. The shares of active, inactive and inconclusive entries below differ from those in the screen. The call rests on the fitted dose curve; in most records, active means well fitted cell-killing curve with a large enough effect; inconclusive means small, poorly fitted or top-dose-only effect, or effect the other way; inactive means flat fitted curve, though single readings scatter. Potencies of inconclusive entries are doubtful fits and often do not repeat.
# Assay: qHTS assay for MDR1-selective chemotherapeutics: Primary screen using the drug-selected MDR subline cells KB-V1; further: nearly all actives have a fitted effect of over 60% in size
# Details: KB-V1 MDR cells viability, CellTiter-Glo, 72 h; activity change, negative = cytotoxicity: at 46.1 µM (top of the series)
# Summary of the method: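 Following 72 h at 37 degrees C with compound, KB-V1 cell viability was read by CellTiter-Glo luminescence, medium being phenol-red-free DMEM plus 10% FBS; concentration-response parameters came from normalized, curve-fitted qHTS data.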
# On the % scale 0 is the no-effect control and ±100 the full control effect; potency means the concentration at half of the fitted maximal effect.
SMILES,Potency,"activity change, negative = cytotoxicity"
Cc1ccc(C)c(NS(=O)(=O)c2cc(C(=O)Nc3ccccc3-c3ccccc3)ccc2C)c1,active: 4.61 µM,
O=C(CN(Cc1ccco1)C(=O)CCC(=O)Nc1ccccn1)NCCc1ccccc1,"inconclusive: 18.4 µM [cytotoxic, partial curve, poor fit]",
CCCc1cc(=O)n2[nH]c(SCc3ccccc3)nc2n1,,inconclusive: 30.4%
Cc1ccc(C)c(N2CCN(C(=O)c3ccc4nsnc4c3)CC2)c1,active: 8.2 µM,
COc1ccc(CC(C)N2CCN(c3cccc(C(F)(F)F)c3)CC2)cc1OC (stereo unspecified),active: 18.4 µM,
O=S(=O)(NCCOc1ccccc1F)c1cccc(Br)c1,,inconclusive: -0.161%
CN(Cc1ccc(Cl)cc1)C(=O)c1ccc2ccccc2n1,,inactive: -2.84%
CCOc1ccc(C(C(=O)NCCOC)N(CCOC)C(=O)CCC(=O)Nc2ccccn2)cc1 (stereo unspecified),"inconclusive: 8.2 µM [rising, partial curve, poor fit]",
O=C(CSc1oc(-c2ccco2)nc1S(=O)(=O)c1ccc(F)cc1)NCC1CCCO1 (stereo unspecified),"inconclusive: 25.9 µM [cytotoxic, partial curve, poor fit]",
N#CCCN(C(=O)COC(=O)c1ccc(CNS(=O)(=O)c2ccc(F)c(Cl)c2)cc1)c1ccc(F)cc1,"inconclusive: 32.6 µM [rising, single point]",
CCN(c1ccccc1)S(=O)(=O)c1cc(C(=O)NCC(c2ccc(OC)cc2)N(C)C)ccc1C (stereo unspecified),"inconclusive: 8.2 µM [cytotoxic, partial curve, poor fit]",
CCC(C)c1ccc(O)c(NC(=S)NC(=O)c2cccnc2)c1 (stereo unspecified),,inactive: -24.3%
CC(C)c1ccc(-c2noc(C3CCCN(S(C)(=O)=O)C3)n2)cc1 (stereo unspecified),active: 18.4 µM,
CCCCn1nnnc1C(c1ccccc1)N1CCc2ccccc2C1 (stereo unspecified),"inconclusive: 23.1 µM [cytotoxic, single point]",
O=C(COc1ccccc1-c1ccccc1)N/N=C/c1ccncc1,"inconclusive: 18.4 µM [cytotoxic, single point]",
CCN(C(=O)CSc1nnc(-c2ccc(OC)cc2)n1N)c1c(N)n(Cc2ccccc2)c(=O)[nH]c1=O,"inconclusive: 29.1 µM [rising, single point]",
Cc1cc(C)c(S(=O)(=O)N2CCCC(C(=O)NC3CC3)C2)c(C)c1 (stereo unspecified),"inconclusive: 16.4 µM [cytotoxic, partial curve]",
CCOc1ccc(OCC)c(S(=O)(=O)N2CCCCC2)c1,"inconclusive: 25.9 µM [cytotoxic, partial curve, poor fit]",
CC1(c2ccccc2)CC(c2ccccc2)=C(C#N)C(=O)N1 (stereo unspecified),"inconclusive: 20.6 µM [cytotoxic, partial curve, poor fit]",
COc1ccc(NC(=S)NC(=O)/C=C/c2ccco2)cc1,"inconclusive: 29.1 µM [cytotoxic, single point]",
COc1ccccc1NC(=O)Nc1ccc2[nH]c(=O)[nH]c2c1,"inconclusive: 16.4 µM [cytotoxic, single point]",
COc1ccc(CCCNC(=O)C2Cc3c(-c4cccc(C(C)=O)c4)ccnc3O2)cc1 (stereo unspecified),active: 20.6 µM,
O=C(NCCN1CCOCC1)c1cc([N+](=O)[O-])ccc1Cl,"inconclusive: 16.4 µM [rising, single point]",

SMILES,Potency,"activity change, negative = cytotoxicity"
O=C(CNC(c1ccccc1)c1ccccc1)Nc1ccccc1-c1ccccc1,active: 14.6 µM,
Cc1ccc(CCNC(=O)c2cnc3c(C)cccn3c2=O)cc1,,inactive: 16.4%
CCn1c(/N=C/c2ccccc2O)nc2ccccc21,,inactive: 8.87%
C[n+]1ccc(/C=C/c2ccc([N+](C)(C)C)cc2)c2ccccc21,"inconclusive: 23.1 µM [cytotoxic, partial curve, poor fit]",
COc1ccc(C(=O)/C(=C\c2ccco2)N2C=CC=CC2=C(C#N)C#N)cc1,active: 7.31 µM,
O=C1COc2ccc(C(=O)CSc3nnc(Cc4cccs4)n3-c3ccc(Cl)cc3)cc2N1,"inconclusive: 11.6 µM [cytotoxic, partial curve, poor fit]",
O=Cc1ccc(C(=O)OCC(=O)NCc2ccco2)cc1,"inconclusive: 11.6 µM [rising, partial curve, poor fit]",
Cc1c(C(C)(C)C)c(C=S)n2ccccc12,,inconclusive: -37.6%
CC1CCCN(C(=O)c2ccc(COc3ccccc3Br)cc2)C1 (stereo unspecified),"inconclusive: 16.4 µM [cytotoxic, single point]",
COc1ccc(NC(=O)CSc2nnc(Cc3cccn3C)n2-c2ccc(C)cc2)cc1OC,"inconclusive: 5.8 µM [cytotoxic, full curve, poor fit]",
CCCCCCNC(=O)CCc1c(C)nc2nc(-c3cc(OC)cc(OC)c3)nn2c1C,,inactive: 6.2%
CCc1ccc(NC(=S)N(Cc2cccnc2)Cc2ccco2)cc1,"inconclusive: 18.4 µM [cytotoxic, partial curve, poor fit]",
Cc1ccc(C(=O)c2cn(Cc3cc(C)ccc3C)c3nc(C)ccc3c2=O)cc1,"inconclusive: 29.1 µM [cytotoxic, single point]",
Cc1ccc(C)c(SCC(=O)NNC(=O)c2csc(N3CCOCC3)n2)c1,,inactive: -27.3%
Cc1cccc2nc(CSc3nc4ccccc4o3)cn12,active: 16.4 µM,
O=C(NCc1ccccc1)c1cc[n+]([O-])cc1,,inactive: -1.86%
Cc1ccc(CNC(=O)C2CCN(Cc3nc(-c4ccccc4C)oc3C)CC2)cc1,,inactive: -11.2%
Cn1c(N)c(C(=O)COC(=O)c2cc(C3CC3)nc3ccccc23)c(=O)n(Cc2ccccc2)c1=O,,inactive: 5.22%
c1ccc(-c2nnsc2-c2nc3ccccc3[nH]2)cc1,"inconclusive: 18.4 µM [cytotoxic, single point]",
CC(C)CCN1C(=O)c2ccc(C(=O)Nc3c[nH]c(=O)[nH]c3=O)cc2C1=O,"inconclusive: 29.1 µM [rising, single point]",
COc1cc(C2Nc3ccccc3NC3=C2C(=O)CC(C)(C)C3)cc(OC)c1OC (stereo unspecified),,inactive: 3.46%
CCN(CC(=O)Nc1cc(Cl)cc(Cl)c1)CC(=O)NC1CCS(=O)(=O)C1 (stereo unspecified),,inactive: 4.95%
CC(C)NC(=O)/C(C#N)=C/c1ccc2c(c1)OCCO2,"inconclusive: 0.0052 µM [cytotoxic, full curve, poor fit]",

# In the list so far, these contain a cyano group:
SMILES,Potency,"activity change, negative = cytotoxicity"
N#CCCN(C(=O)COC(=O)c1ccc(CNS(=O)(=O)c2ccc(F)c(Cl)c2)cc1)c1ccc(F)cc1,"inconclusive: 32.6 µM [rising, single point]",
CC1(c2ccccc2)CC(c2ccccc2)=C(C#N)C(=O)N1 (stereo unspecified),"inconclusive: 20.6 µM [cytotoxic, partial curve, poor fit]",
COc1ccc(C(=O)/C(=C\c2ccco2)N2C=CC=CC2=C(C#N)C#N)cc1,active: 7.31 µM,
CC(C)NC(=O)/C(C#N)=C/c1ccc2c(c1)OCCO2,"inconclusive: 0.0052 µM [cytotoxic, full curve, poor fit]",
